{"source": "patent US20100040630A1", "about": "“METHODS AND COMPOSITIONS FOR TREATING BONE LOSS” (priority 2008, published 2010)", "origin": "cited, not measured here", "test_system": "RA", "conditions": "in vivo; cited from earlier work", "note": "At least one compound was matched to its structure with a doubt left.", "data": [{"smiles": "O=P(O)(O)C(O)(Cn1ccnc1)P(=O)(O)O", "note": "[zoledronic acid]", "values": [{"measurement": "progression of erosions (in words)", "value": "reduce the progression of erosions"}]}]}
